Record: PubChem BioAssay AID493246 (Drosophila RNAi Screening Center, 2011)

Test: 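Identify essential fly genes by loss of cell viability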 (primary screen)
System: Drosophila Kc and S2R+ cells
Knock-down reagent: long dsRNA against Drosophila genes
Read-out: 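Raw, unnormalised count of remaining cells in each well; per-plate z-scores of cell number underlie the calls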
Reading the numbers: Kc cell number and S2R+ cell number: higher = more cells remaining
Call rule: 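Active when the per-plate z-score of cell number is 3 or more in the direction of fewer cells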
In all, the deposit lists about 21,000 reagents; this is a random part of those that have a named target and a result. In the full data, 429 (2%) are marked active. 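Values are raw and not normalised between plates; calls rest on per-plate z-scores that were not deposited.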 A number with no mark means an inactive call. The record does not give: the amount of reagent, the time to read-out.

The opening 4 entries, to show the layout:
Target gene	dsRNA	Kc cell number, rep 1	Kc cell number, rep 2	S2R+ cell number, rep 1	S2R+ cell number, rep 2
Lectin-galC1	DRSC03362	1.53e6	1.60e6	1.25e6	3.32e5
Cpr47Ee	DRSC06343	6.21e5 (active)	9.29e5	5.29e5	6.37e5
swi2	DRSC06457	1.65e6	1.72e6	1.21e6	1.40e6
RpS14a	DRSC18710	8.38e5 (active)	9.48e5	7.15e5	8.62e5

Main list, from the first entry:
Target gene	dsRNA	Kc cell number, rep 1	Kc cell number, rep 2	S2R+ cell number, rep 1	S2R+ cell number, rep 2
Lectin-galC1	DRSC03362	1.53e6	1.60e6	1.25e6	3.32e5
Cpr47Ee	DRSC06343	6.21e5 (active)	9.29e5	5.29e5	6.37e5
swi2	DRSC06457	1.65e6	1.72e6	1.21e6	1.40e6
RpS14a	DRSC18710	8.38e5 (active)	9.48e5	7.15e5	8.62e5
CG15449	DRSC20521	1.66e6	1.66e6	1.14e6	1.22e6
CG30183	DRSC04450	1.48e6	1.54e6	1.29e6	1.36e6
CG30183	DRSC04472	1.48e6	1.49e6	1.28e6	1.37e6
CG17752	DRSC15262	1.31e6	1.31e6	1.06e6	1.14e6
Or19a	DRSC20684	1.51e6	1.51e6	1.04e6	1.16e6
CG34384	DRSC12644	1.39e6	1.52e6	1.09e6	1.24e6
CG34384	DRSC14855	1.35e6	1.36e6	1.25e6	1.42e6
CG34384	DRSC15444	1.48e6	1.50e6	1.37e6	1.52e6
CG34384	DRSC16575	1.40e6	1.49e6	1.39e6	1.46e6
Sfp26Ad	DRSC00904	1.38e6	1.48e6	9.97e5	1.15e6
Ugt317A1	DRSC04470	1.67e6	1.78e6	1.24e6	1.36e6
CG8209	DRSC10970	1.36e6	1.30e6	1.18e6	1.23e6
CenG1A	DRSC02538	1.57e6	1.59e6	1.21e6	1.35e6
CenG1A	DRSC03505	1.51e6	1.57e6	1.23e6	1.36e6
CenG1A	DRSC03506	1.48e6	1.54e6	1.22e6	1.42e6
Culd	DRSC10262	1.28e6	1.43e6	1.30e6	9.21e5
CG6052	DRSC10574	1.29e6	1.40e6	1.24e6	1.33e6
Spn42Dd	DRSC05024	1.77e6	1.88e6	1.43e6	1.61e6
Adk1	DRSC15514	1.65e6	1.55e6	1.34e6	1.45e6
Ndg	DRSC06223	1.38e6	1.49e6	1.00e6	8.96e5
Drgx	DRSC00278	1.60e6	1.56e6	1.17e6	1.30e6
Drgx	DRSC00537	1.62e6	1.41e6	1.13e6	1.28e6
CG7130	DRSC11797	1.58e6	1.59e6	1.42e6	1.50e6
mRpL16	DRSC18550	5.47e5		7.65e5	
Sod1	DRSC11286	1.36e6	1.26e6	1.19e6	1.26e6
CtsL3	DRSC12171	1.55e6	1.59e6	1.25e6	1.32e6
CG18545	DRSC15343	1.34e6	1.43e6	1.25e6	1.28e6
CG18765	DRSC15392	1.41e6	1.43e6	1.26e6	1.31e6
CG11899	DRSC16656	1.44e6	1.45e6	1.01e6	1.15e6
CG18180	DRSC10304	1.41e6	1.42e6	1.43e6	1.34e6
Cyp4p1	DRSC07372	1.73e6	1.77e6	1.39e6	1.58e6
CG17821	DRSC06696	1.66e6	1.64e6	1.27e6	1.34e6
CG13252	DRSC11700	1.27e6	1.28e6	1.24e6	1.33e6
CG1640	DRSC19750	6.69e5		9.33e5	
CG14416	DRSC18639	1.56e6	1.60e6	1.04e6	1.19e6
TTLL6A	DRSC06618	1.50e6	1.59e6	1.21e6	1.35e6
